Source: PMC3900384
Results are given in words; binding and its absence hold for the method and conditions named. For some of these results: Binding seen in cells or lysates may run through a third protein. Some binding calls cover weakened binding; strength is not graded here. For some of these results: Tags and fused reporters may be left off the sequences shown. Each block holds one binder with its values, some of them ahead of it.

Key:
[1] = biological target: T1, GFP-AL6 (Arabidopsis thaliana) (UniProt Q8S8M9); test: co-IP; extracts of two-week-old Arabidopsis seedlings expressing GFP-AL6 and FLAG-AtRING1a; IP overnight at 4°C with polyclonal anti-GFP and protein A beads; lysis buffer 50 mM Tris-HCl pH 7, 150 mM NaCl, 0.5% Triton X-100, with DNaseI; blot with anti-FLAG
T1 sequence: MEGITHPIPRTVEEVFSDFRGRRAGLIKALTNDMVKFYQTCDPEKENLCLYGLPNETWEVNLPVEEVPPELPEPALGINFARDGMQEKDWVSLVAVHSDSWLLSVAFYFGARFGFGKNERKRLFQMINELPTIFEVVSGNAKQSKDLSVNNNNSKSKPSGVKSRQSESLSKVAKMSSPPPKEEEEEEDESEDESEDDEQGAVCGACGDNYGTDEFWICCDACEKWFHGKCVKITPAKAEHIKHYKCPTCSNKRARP

[2] = biological target: T2, GST-AL2 (Arabidopsis thaliana) (UniProt Q9SRM4); test: pull-down; agarose beads coated with GST or GST fusion protein, incubated with total protein extracts of two-week-old transgenic Arabidopsis seedlings; Western blot with anti-FLAG or anti-GFP; only the target purified
T2 sequence: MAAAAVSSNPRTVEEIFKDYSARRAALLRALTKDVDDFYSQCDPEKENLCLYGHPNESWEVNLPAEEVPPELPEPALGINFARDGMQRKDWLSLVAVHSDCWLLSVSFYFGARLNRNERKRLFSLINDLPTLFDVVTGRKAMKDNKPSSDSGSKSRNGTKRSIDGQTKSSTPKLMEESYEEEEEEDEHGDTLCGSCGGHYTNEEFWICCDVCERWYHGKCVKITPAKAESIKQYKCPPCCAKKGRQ

[3] = biological target: T3, GST-AL7 (Arabidopsis thaliana) (UniProt Q8LA16); test: as above
T3 sequence: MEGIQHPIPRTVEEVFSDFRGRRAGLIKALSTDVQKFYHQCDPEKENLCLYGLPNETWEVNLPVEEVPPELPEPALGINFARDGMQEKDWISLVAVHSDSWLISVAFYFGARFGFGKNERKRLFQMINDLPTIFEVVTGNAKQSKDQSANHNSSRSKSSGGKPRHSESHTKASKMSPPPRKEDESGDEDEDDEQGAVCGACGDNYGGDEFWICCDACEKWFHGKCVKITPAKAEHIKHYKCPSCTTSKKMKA

[4] = biological target: T4, GST-AL6 (Arabidopsis thaliana) (UniProt Q8S8M9); test: as above
T4 sequence: T1 sequence

[5] = biological target: T5, AtRING1a (Arabidopsis thaliana) (UniProt Q9FKW0); test: two-hybrid; pairwise tests of pGBKT7 and pGADT7 constructs in S. cerevisiae PJ69-4a; growth on SD lacking Leu, Trp and Ade (SD-LTA)
T5 sequence: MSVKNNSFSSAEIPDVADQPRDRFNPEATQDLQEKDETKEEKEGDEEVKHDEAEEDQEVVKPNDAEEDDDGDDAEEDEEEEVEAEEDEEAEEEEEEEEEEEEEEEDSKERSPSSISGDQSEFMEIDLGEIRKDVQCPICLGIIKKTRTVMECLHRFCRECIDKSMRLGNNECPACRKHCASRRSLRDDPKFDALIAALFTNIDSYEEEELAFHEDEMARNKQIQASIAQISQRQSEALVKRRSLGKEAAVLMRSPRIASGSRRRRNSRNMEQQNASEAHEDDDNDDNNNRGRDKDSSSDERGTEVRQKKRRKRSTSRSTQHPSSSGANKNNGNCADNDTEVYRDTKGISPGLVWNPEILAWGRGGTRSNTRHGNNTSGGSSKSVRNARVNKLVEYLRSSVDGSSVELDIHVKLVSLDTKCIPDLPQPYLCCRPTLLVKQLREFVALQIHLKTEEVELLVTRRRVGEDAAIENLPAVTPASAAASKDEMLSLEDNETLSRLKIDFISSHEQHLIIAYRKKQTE

[6] = biological target: T6, AtRING1a-GFP (Arabidopsis thaliana) (UniProt Q9FKW0); test: FRET or BRET; FLIM: GFP and RFP fusions transiently co-expressed in Nicotiana benthamiana leaves; decrease of GFP fluorescence lifetime in nuclei, more than 5% counted as interaction
T6 sequence: T5 sequence

[7] = biological target: T7, AtRING1aC (aa 238-522) (Arabidopsis thaliana) (UniProt Q9FKW0); test: two-hybrid; pairwise tests of pGBKT7 and pGADT7 constructs in S. cerevisiae PJ69-4a; growth on SD lacking Leu, Trp and Ade (SD-LTA)
T7 sequence: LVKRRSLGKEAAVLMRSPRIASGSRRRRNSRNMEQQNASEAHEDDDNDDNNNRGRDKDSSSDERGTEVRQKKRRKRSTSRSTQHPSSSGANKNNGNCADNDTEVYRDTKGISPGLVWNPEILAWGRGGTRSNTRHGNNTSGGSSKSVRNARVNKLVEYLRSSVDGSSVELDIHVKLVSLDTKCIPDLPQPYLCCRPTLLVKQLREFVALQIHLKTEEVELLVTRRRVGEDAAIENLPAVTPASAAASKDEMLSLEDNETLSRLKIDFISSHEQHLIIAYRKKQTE

[8] = biological target: T5, AtRING1a (Arabidopsis thaliana); test: two-hybrid; library screen: AtRING1a as bait (pGBKT7) against an Arabidopsis seedling cDNA library

binding [1]: binds
binding [2]: binds
binding [3]: binds
binding [4]: binds
B1: FLAG-AtRING1a (protein, UniProt Q9FKW0 1-522)
chain: T5 sequence

binding [5]: binds
B2: AL1 (protein, UniProt Q9FFF5 1-241)
chain: MAAESSNPRTVEEIFKDFSGRRSGFLRALSVDVDKFYSLCDPEMENLCLYGHPNGTWEVNLPAEEVPPELPEPALGINFARDGMQRKDWLSLVAVHSDCWLLSVSSYFGARLNRNERKRLFSLINDLPTLFEVVTGRKPIKDGKPSMDLGSKSRNGVKRSIEGQTKSTPKLMEESYEDEDDEHGDTLCGSCGGNYTNDEFWICCDVCERWYHGKCVKITPAKAESIKQYKCPSCCTKKGRQ

binding [6]: binds
B3: RFP-AL1 (protein, UniProt Q9FFF5 1-241)
chain: B2 chain

binding [5]: binds
B4: AtRING1aN (aa 1-218) (domain or fragment, UniProt Q9FKW0 1-218)
chain: MSVKNNSFSSAEIPDVADQPRDRFNPEATQDLQEKDETKEEKEGDEEVKHDEAEEDQEVVKPNDAEEDDDGDDAEEDEEEEVEAEEDEEAEEEEEEEEEEEEEEEDSKERSPSSISGDQSEFMEIDLGEIRKDVQCPICLGIIKKTRTVMECLHRFCRECIDKSMRLGNNECPACRKHCASRRSLRDDPKFDALIAALFTNIDSYEEEELAFHEDEMA

binding [7]: binds
binding [8]: binds
B5: AL6N (aa 1-162) (domain or fragment, UniProt Q8S8M9 1-162)
chain: MEGITHPIPRTVEEVFSDFRGRRAGLIKALTNDMVKFYQTCDPEKENLCLYGLPNETWEVNLPVEEVPPELPEPALGINFARDGMQEKDWVSLVAVHSDSWLLSVAFYFGARFGFGKNERKRLFQMINELPTIFEVVSGNAKQSKDLSVNNNNSKSKPSGVK

binding [6]: binds
B6: RFP-AL2 (protein, UniProt Q9SRM4 1-246)
chain: T2 sequence

binding [5]: binds
B7: AL2 (protein, UniProt Q9SRM4 1-246)
chain: T2 sequence

binding [6]: binds
B8: RFP-AL6 (protein, UniProt Q8S8M9 1-256)
chain: T1 sequence

binding [5]: binds
B9: AL6 (protein, UniProt Q8S8M9 1-256)
chain: T1 sequence

binding [6]: binds
B10: RFP-AL7 (protein, UniProt Q8LA16 1-252)
chain: T3 sequence

binding [5]: binds
B11: AL7 (protein, UniProt Q8LA16 1-252)
chain: T3 sequence

binding [5]: binds
B12: AL5 (protein, UniProt Q5XEM9 1-260)
chain: MEGGTAHYSPRTVEEVFRDFKGRRAGIIQALTTDVEDFFQQCDPEKQNLCLYGFPNEVWEVNLPAEEVPPELPEPALGINFARDGMQERNWLSLVAVHSDAWLLSVSFYFGSRFGFDRADRKRLFSMINEVPTVYEVVTGNAEKQTKEMPSSANQNGNRSKSNSKMRGLESKSSKTIHAKDEEEGLELEEGEEEEDEDEDEHGETLCGACGDNYASDEFWICCDMCEKWFHGECVKITPARAEHIKHYKCPTCSNKRARP
